{"source": "PubChem BioAssay AID504786 | Drosophila RNAi Screening Center, 2011", "aim": "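Knock-downs reducing HIF reporter induction by the iron chelator DFO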 (primary screen)", "cells": "Drosophila S2 cells with a stable HIF luciferase reporter", "knock-down reagent": "long dsRNA against Drosophila genes, about 0.2 µg dsRNA per well of a 384-well plate", "timing": "three days of knock-down, then 20 h of DFO before reading", "conditions": "desferrioxamine (DFO) at 100 µM, an iron chelator that mimics hypoxia, for 20 h", "measurement": "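Firefly luciferase driven by the mouse ldh-a hypoxia-response element, measured after 20 h of 100 µM DFO; z-scores per plate, higher means more signal lost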", "scale": "z-score: higher = stronger loss of HIF reporter signal", "note": "The deposit covers about 21,000 reagents; this is a random part of those that have a named target and a result. 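Primary screen; positive scores mean lost reporter signal, so the sign may be inverted from the usual convention.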 Further read-outs or replicates are left out here."}
{"gene":"CG32053","DRSC id":"DRSC10683","z-score, replicate 1":0}
{"gene":"Orp8 (Oxysterol-binding protein-related protein 8)","DRSC id":"DRSC15110","z-score, replicate 1":-0.8}
{"gene":"Orp8 (Oxysterol-binding protein-related protein 8)","DRSC id":"DRSC15712","z-score, replicate 1":-0.2}
{"gene":"Opbp (Optix-binding protein)","DRSC id":"DRSC04966","z-score, replicate 1":-0.1}
{"gene":"CG1572","DRSC id":"DRSC19686","z-score, replicate 1":-0.3}
{"gene":"Orct2 (Organic cation transporter 2)","DRSC id":"DRSC14613","z-score, replicate 1":-0.3}
{"gene":"CG14086","DRSC id":"DRSC10090","z-score, replicate 1":-0.2}
{"gene":"LSm1 (Like Sm 1)","DRSC id":"DRSC04458","z-score, replicate 1":-0.2}
{"gene":"Pgant5 (Polypeptide N-Acetylgalactosaminyltransferase 5)","DRSC id":"DRSC03149","z-score, replicate 1":-0.2}
{"gene":"emp (epithelial membrane protein)","DRSC id":"DRSC04019","z-score, replicate 1":0}
{"gene":"emp (epithelial membrane protein)","DRSC id":"DRSC04683","z-score, replicate 1":-0.2}
{"gene":"Sodh2 (Sorbitol dehydrogenase 2)","DRSC id":"DRSC16865","z-score, replicate 1":-0.3}
{"gene":"CG18636","DRSC id":"DRSC02685","z-score, replicate 1":-0.2}
{"gene":"Sh3beta","DRSC id":"DRSC11001","z-score, replicate 1":-0.2}
{"gene":"NP15.6","DRSC id":"DRSC16756","z-score, replicate 1":0}
{"gene":"Lrch (Leucine-rich-repeats and calponin homology domain protein)","DRSC id":"DRSC02996","z-score, replicate 1":0}
{"gene":"CG13775","DRSC id":"DRSC02279","z-score, replicate 1":-0.1}
{"gene":"Rad23","DRSC id":"DRSC17167","z-score, replicate 1":-0.1}
{"gene":"HP1e (Heterochromatin Protein 1e)","DRSC id":"DRSC16379","z-score, replicate 1":-0.3}
{"gene":"Cluap1 (Clusterin associated protein 1)","DRSC id":"DRSC20637","z-score, replicate 1":-0.5}
{"gene":"eIF4E4 (eukaryotic translation initiation factor 4E4)","DRSC id":"DRSC09701","z-score, replicate 1":2.2}
{"gene":"Eph (Eph receptor tyrosine kinase)","DRSC id":"DRSC17164","z-score, replicate 1":-0.2}
{"gene":"Tig (Tiggrin)","DRSC id":"DRSC03456","z-score, replicate 1":-0.1}
{"gene":"CG10864","DRSC id":"DRSC14273","z-score, replicate 1":-0.3}
{"gene":"Mtr3","DRSC id":"DRSC10953","z-score, replicate 1":0.2}
{"gene":"Nlp (Nucleoplasmin)","DRSC id":"DRSC16759","z-score, replicate 1":-0.4}
{"gene":"CG8036","DRSC id":"DRSC16366","z-score, replicate 1":-0.4}
